Data as given in PubChem BioAssay AID1224830 (NIAID, 2016)
Shown is an unselected part of about 18,000 reagents. Over the whole deposit, about 2,900 (16%) are marked active. 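Calls are made per well; low scores hint the gene aids the LPS response, high scores that it dampens it.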 Unmarked entries are inactive. Repeated entries: four replicate wells of each siRNA pool.

Assay: 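Regulators of TLR4 signalling towards TNF-alpha in macrophage-like cells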 (primary screen)
System: human THP-1 monocytic leukaemia cells, TNF dual-luciferase reporter clone, PMA-differentiated to macrophage-like cells
Knock-down reagent: siRNA pool against human genes, 50 nM
Time to read-out: LPS for 4 h, given about 3 days after siRNA transfection
Treatment: bacterial LPS (TLR4 ligand), 10 ng/ml
Detection: 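Ratio of firefly to renilla light, scaled to the plate median and expressed as a robust z-score per replicate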
Reading the numbers: TNF reporter robust z-score: higher = stronger TNF reporter response to LPS
Active means: 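a well is active when its z-score exceeds 2.8 or falls below -1.5; control wells carry no call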

TNF reporter robust z-score	Target gene
-0.12	ACOX3 (GeneID 8310)
0.2	ACOX3 (GeneID 8310)
0.44	ACOX3 (GeneID 8310)
0.24	ACOX3 (GeneID 8310)
-0.98	BRSK2 (GeneID 9024)
-0.7	BRSK2 (GeneID 9024)
-1.18	BRSK2 (GeneID 9024)
-0.22	BRSK2 (GeneID 9024)
-0.77	PROX2 (GeneID 283571)
-0.51	PROX2 (GeneID 283571)
-0.27	PROX2 (GeneID 283571)
-0.39	PROX2 (GeneID 283571)
-0.5	MBLAC1 (GeneID 255374)
0.15	MBLAC1 (GeneID 255374)
-0.24	MBLAC1 (GeneID 255374)
-0.09	MBLAC1 (GeneID 255374)
0.33	TINAGL1 (GeneID 64129)
1.95	TINAGL1 (GeneID 64129)
6.28 (active)	TINAGL1 (GeneID 64129)
-0.74	TINAGL1 (GeneID 64129)
-0.61	ANKRD37 (GeneID 353322)
1.36	ANKRD37 (GeneID 353322)
2.14	ANKRD37 (GeneID 353322)
2.52	ANKRD37 (GeneID 353322)
0.21	OXSM (GeneID 54995)
0.09	OXSM (GeneID 54995)
-0.44	OXSM (GeneID 54995)
0.82	OXSM (GeneID 54995)
-0.5	IFT25 (GeneID 51668)
0.17	IFT25 (GeneID 51668)
0.27	IFT25 (GeneID 51668)
1.34	IFT25 (GeneID 51668)

3 of these entries in another layout:
TNF reporter robust z-score | Target gene
1.95 | TINAGL1 (GeneID 64129)
6.28 (active) | TINAGL1 (GeneID 64129)
-0.74 | TINAGL1 (GeneID 64129)

Additional records follow.
TNF reporter robust z-score	Target gene
0.59	ANKAR (GeneID 150709)
0.62	ANKAR (GeneID 150709)
0.31	ANKAR (GeneID 150709)
2.57	ANKAR (GeneID 150709)
-0.49	ASIC5 (GeneID 51802)
-1.36	ASIC5 (GeneID 51802)
0.12	ASIC5 (GeneID 51802)
0.1	ASIC5 (GeneID 51802)
1.89	NDFIP2 (GeneID 54602)
1.3	NDFIP2 (GeneID 54602)
1.23	NDFIP2 (GeneID 54602)
1.29	NDFIP2 (GeneID 54602)
2.48	ELN (GeneID 2006)
0.15	ELN (GeneID 2006)
-0.93	ELN (GeneID 2006)
0.01	ELN (GeneID 2006)
0.46	P4HA2 (GeneID 8974)
1.01	P4HA2 (GeneID 8974)
1.11	P4HA2 (GeneID 8974)
0.08	P4HA2 (GeneID 8974)
-0.18	STAG3 (GeneID 10734)
0.22	STAG3 (GeneID 10734)
0.13	STAG3 (GeneID 10734)
-0.05	STAG3 (GeneID 10734)
-0.3	INPP5F (GeneID 22876)
0.99	INPP5F (GeneID 22876)
0.69	INPP5F (GeneID 22876)
0.93	INPP5F (GeneID 22876)
-0.73	APOC4 (GeneID 346)
0.6	APOC4 (GeneID 346)
1.51	APOC4 (GeneID 346)
0.8	APOC4 (GeneID 346)
-0.51	ACSM1 (GeneID 116285)
-0.25	ACSM1 (GeneID 116285)
-0.49	ACSM1 (GeneID 116285)
-0.79	ACSM1 (GeneID 116285)
-0.87	CRISP3 (GeneID 10321)
-0.44	CRISP3 (GeneID 10321)
-0.71	CRISP3 (GeneID 10321)
-0.34	CRISP3 (GeneID 10321)
0.5	ALAD (GeneID 210)
1.05	ALAD (GeneID 210)
0.49	ALAD (GeneID 210)
0.87	ALAD (GeneID 210)
